For 2 substances, binding results are on record in article PMC6077249, “Insights into Centromere DNA Bending Revealed by the Cryo-EM Structure of the Core Centromere Binding Factor 3 with Ndc10”.

Sequences of proteins named here, by UniProt entry; tags and fusion partners are left off. A change or cut given only in a name is not applied to a line headed by its entry. Residues count along the entry.
UniProt P40969, residues 47-608: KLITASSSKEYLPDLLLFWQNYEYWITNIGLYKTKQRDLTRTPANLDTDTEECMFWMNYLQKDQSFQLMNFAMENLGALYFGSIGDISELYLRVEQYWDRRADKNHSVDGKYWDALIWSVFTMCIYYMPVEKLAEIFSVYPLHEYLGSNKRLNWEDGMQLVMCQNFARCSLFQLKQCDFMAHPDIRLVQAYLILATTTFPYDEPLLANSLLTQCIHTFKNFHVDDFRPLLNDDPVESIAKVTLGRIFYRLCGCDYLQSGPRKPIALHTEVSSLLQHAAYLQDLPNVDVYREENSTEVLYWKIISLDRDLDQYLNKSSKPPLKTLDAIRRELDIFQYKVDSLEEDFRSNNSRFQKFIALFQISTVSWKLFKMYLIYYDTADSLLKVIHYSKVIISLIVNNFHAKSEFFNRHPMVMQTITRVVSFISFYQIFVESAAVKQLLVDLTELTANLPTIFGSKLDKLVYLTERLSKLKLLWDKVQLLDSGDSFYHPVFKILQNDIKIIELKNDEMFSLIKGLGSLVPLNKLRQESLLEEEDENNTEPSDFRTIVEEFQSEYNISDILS
UniProt P35203, residues 2-478: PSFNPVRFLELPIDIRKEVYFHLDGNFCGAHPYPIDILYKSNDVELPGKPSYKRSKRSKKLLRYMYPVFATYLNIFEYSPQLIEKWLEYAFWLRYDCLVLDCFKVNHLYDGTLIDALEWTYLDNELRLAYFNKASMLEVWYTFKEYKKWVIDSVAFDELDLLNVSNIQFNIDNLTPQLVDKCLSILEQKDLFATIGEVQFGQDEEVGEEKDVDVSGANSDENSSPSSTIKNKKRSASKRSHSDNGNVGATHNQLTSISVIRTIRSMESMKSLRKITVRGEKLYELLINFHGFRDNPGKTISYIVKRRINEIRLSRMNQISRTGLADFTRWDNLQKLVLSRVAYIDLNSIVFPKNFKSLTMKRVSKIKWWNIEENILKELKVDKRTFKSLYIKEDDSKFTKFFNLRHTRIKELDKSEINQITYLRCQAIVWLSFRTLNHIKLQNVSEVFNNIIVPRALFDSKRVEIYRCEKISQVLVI
UniProt P52286, residues 2-194: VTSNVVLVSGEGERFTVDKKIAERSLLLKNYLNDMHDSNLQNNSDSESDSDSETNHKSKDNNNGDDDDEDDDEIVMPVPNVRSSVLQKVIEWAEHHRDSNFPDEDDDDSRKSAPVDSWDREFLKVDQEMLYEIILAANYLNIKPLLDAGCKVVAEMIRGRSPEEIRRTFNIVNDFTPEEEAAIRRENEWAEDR

In assay [1] the target is Cep3ΔN (N-terminally truncated Cep3, residues 47–608, lacking the Zn2Cys6 domain) (S. cerevisiae) (UniProt P40969). As to the kind of experiment: cryo-EM structure; CBF3CCΔN co-expressed in S. cerevisiae and co-purified; 0.12 and 0.24 mg/ml on UltrAuFoil grids; 3.7 Å map; buffer 15 mM Tris pH 8.0, 200 mM NaCl, 2 mM DTT; both purified.
A further assay addresses Ctf13 (S. cerevisiae) (UniProt P35203). The description is as above.

No constants are given. Whether binding was seen depends on the method and setting. Some results given as binding are weak or reduced against the parent protein; the word gives no strength.

As to Ctf13 (from UniProt P35203 2-478), the binding result in assay [1] was “binds”. As to Skp1 (from UniProt P52286 2-194), the binding entry with Ctf13 (S. cerevisiae) was “binds”.
